No constants are given. Whether binding was seen depends on the method and setting. Binding seen in cells or lysates may run through a third protein. Binding calls can cover weak binding; strength is not graded here. Sequences can lack the tags named with a protein.
Experiments:
[1] = biological target: Full-length zebrafish Udu, Flag-tagged (zebrafish); assay: co-IP; Flag-tagged Udu constructs and Myc-tagged candidates co-transfected in HEK293 or COS-7 cells; lysate (25 mM Tris–HCl pH 7.4, 150 mM NaCl, 1% NP-40, 1 mM EDTA, 5% glycerol) on anti-FLAG M2 magnetic beads overnight at 4 °C; blot with anti-MYC
[2] = biological target: zebrafish Udu with only the PAH/SANT domain, Flag-tagged (zebrafish); assay: as above

binding [1] | binding [2] | Binder
binds | binds | zebrafish BRCA1-associated protein 1, Myc-tagged (protein, UniProt A1L2G3 1-755) MNKGWLELESDPGLFTLLVEDFGVKGVQVEEIYDLQSKCQSPVYGFIFLFKWIEERRSRRKVSTLVDETSVIDDDIVNDMFFAHQLIPNSCATHALLSVLLNCSGVELGMTLSRMKAFTKGFNPESKGYAIGNAPELAKAHNSHARPEPRHLPEKQNGISAVRTMEAFHFVSYVPIKDRLFELDGLKAYPIDHGPWGEDEEWTDKARRVIMERIGLATAGEPYHDIRFNLMAVVPDRRIKYESKLDILKRNRQIILEGLQQIREKKVIRMTQQESGQDRKQQDSSSSEDTPPVVKKEEVQETPIPSGAEQATPTEAQEGAASLPSPAGKVRSMAKPALPAGGAPPPAPLPAPSTNTIVQRLPAFLDNHNYAKSPMQEEEDLAAGVGRSRPPQPPYSDDEDDYDDEEEECSTAGVTNSRVRRKLGLRTRTMSRTAVGGVAAMEGQLALSVLAEKLKKEVQRKDALATTGSTPLNVRTEGRTGGISITSACQPSPTPSNESTDTASEIGSAFNSPLRSPARSQATTRPSSPVASHVGRVLFGEEEGLPRLDARHNRAVRDLGVLVSSTQLQLQEDGVIFALPPTEALEGLKKVGGVDKKKKEEASGPGGEEEVKEGPSVEMKAEDVKESVDVKPEKENLPTTDVENSTKPPGEKYTPKELLALLKYVEADIANYEVYLKEEVEKRKKYKIDDQRRTHNYDEFICTFISMLAQEGMLASLVEQNISVRRRQGVSIGRLHKQRKPDRRKRSRPYKAKRQ
binds | binds | zebrafish Tho complex 1, Myc-tagged (protein, UniProt Q7SYB2 1-655) MSPPSHFDFIEARDKFTVATKNAVDTRNCKPLTTAFSHLPGNETEKKATLDQALRGVLEEQIVNQKVNVDDFLSLIYISIDGVTEGICSATTPFLLLGDVLDCLPLDQCDKIFSFVEENVSTWKSNTFYSAGKNYLLRMCNDLLRRLSKSQNTVFCGRIQLFLARLFPLSEKSGLNLQSQFNLDNITVFNKNEQDSTLGQQHTEVKEEGMDVEEGEMGDEDAPAPSSIPIDYNLYRKFWTLQDYFRNPVQCYDKFSWMTFIKYSDEALAVFKSFKLDDMQASKKKLEEMRTSSGDHVYFAKFLTSEKLMDLQLSDSNFRRHILLQYLILFQYLKGQVKFKSSSCVLNDDQSLWIEDTTKLVYQLLKEIPPDGDKFGSMVEHILNTEENWNSWKNEGCPSFVKERPAETKPIRPSRKRQAPEDFLGKGPDRKILMGNDELTRLWNLNPDNMEACKSENREFMPSLEDFFEEAIEQADPANMVEDEYKVVRNSNYGWRALRLLSRRSPHFFQPTNQQFKSLADYLENMVIKLAKELPKDIPSEEIKTGEEDDDENGDNLLKDSNDSPSIQSKAVTNSQMDEIAAKLGSQWKTLADHLEMSDKEIRVIESDSEDVDLQAKMLLVAWQDREGSQATMESLVTALNAAGFNNIADNLSET
